# Measurements taken from patent US4196122A, “Analgesic polypeptide” (American Home Products Corporation, priority 1977, dated 1980).
# Part of at least one peptide drawing is inferred or uncertain, most often the ends. Where a SMILES comes first, the peptide text is derived from it. [ ]: non-standard residue; d: D form. dPhg = N[C@@H](C(=O)O)c1ccccc1
# Tested on: rat
# Assay: rat-tail flick test (D'Amour and Smith) for analgesic activity
# Format: in vivo
smiles,measurement,setting,value
"NCCCC[C@@H](NC(=O)[C@H](Cc1ccccc1)NC(=O)CNC(=O)[C@H](NC(=O)[C@@H](N)Cc1ccc(O)cc1)c1ccccc1)C(N)=O [Tyr-D-Pgl-Gly-Phe-D-Lys-NH2, L-Tyrosyl-D-C-phenylglycyl-glycyl-L-phenylalanyl-D-lysyl amide] (H-Y[dPhg]GF[dK]-NH2)",No. showing analgesia/No. tested,"intravenous, 0.5 milligram/kilogram",0/6
same,No. showing analgesia/No. tested,"intravenous, 1.0 milligram/kilogram",3/6
same,No. showing analgesia/No. tested,"intravenous, 2.5 milligram/kilogram",6/6
same,No. showing analgesia/No. tested,"intravenous, 5.0 milligram/kilogram",6/6
same,No. showing analgesia/No. tested,"subcutaneous, 5 milligram/kilogram",1/6
same,No. showing analgesia/No. tested,"subcutaneous, 10 milligram/kilogram",1/6
